# Publication PMC7862700
# Sequences of proteins named here, by UniProt entry; tags and fusion partners are left off. A change or cut given only in a name is not applied to a line headed by its entry.
# UniProt P41161: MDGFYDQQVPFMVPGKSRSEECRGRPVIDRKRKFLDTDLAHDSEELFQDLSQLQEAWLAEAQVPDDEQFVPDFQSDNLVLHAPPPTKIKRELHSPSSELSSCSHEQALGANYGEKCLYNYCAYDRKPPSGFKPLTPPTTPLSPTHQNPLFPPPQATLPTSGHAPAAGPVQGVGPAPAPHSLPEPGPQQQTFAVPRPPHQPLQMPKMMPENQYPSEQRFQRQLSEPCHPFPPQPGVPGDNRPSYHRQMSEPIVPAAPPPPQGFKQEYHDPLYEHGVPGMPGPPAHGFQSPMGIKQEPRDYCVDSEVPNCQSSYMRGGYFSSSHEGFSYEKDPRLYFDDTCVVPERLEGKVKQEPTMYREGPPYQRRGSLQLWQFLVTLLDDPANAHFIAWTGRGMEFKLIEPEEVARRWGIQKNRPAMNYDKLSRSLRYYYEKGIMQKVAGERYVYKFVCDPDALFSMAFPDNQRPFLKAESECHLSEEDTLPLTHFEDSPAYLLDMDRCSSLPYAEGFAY
# UniProt Q99607: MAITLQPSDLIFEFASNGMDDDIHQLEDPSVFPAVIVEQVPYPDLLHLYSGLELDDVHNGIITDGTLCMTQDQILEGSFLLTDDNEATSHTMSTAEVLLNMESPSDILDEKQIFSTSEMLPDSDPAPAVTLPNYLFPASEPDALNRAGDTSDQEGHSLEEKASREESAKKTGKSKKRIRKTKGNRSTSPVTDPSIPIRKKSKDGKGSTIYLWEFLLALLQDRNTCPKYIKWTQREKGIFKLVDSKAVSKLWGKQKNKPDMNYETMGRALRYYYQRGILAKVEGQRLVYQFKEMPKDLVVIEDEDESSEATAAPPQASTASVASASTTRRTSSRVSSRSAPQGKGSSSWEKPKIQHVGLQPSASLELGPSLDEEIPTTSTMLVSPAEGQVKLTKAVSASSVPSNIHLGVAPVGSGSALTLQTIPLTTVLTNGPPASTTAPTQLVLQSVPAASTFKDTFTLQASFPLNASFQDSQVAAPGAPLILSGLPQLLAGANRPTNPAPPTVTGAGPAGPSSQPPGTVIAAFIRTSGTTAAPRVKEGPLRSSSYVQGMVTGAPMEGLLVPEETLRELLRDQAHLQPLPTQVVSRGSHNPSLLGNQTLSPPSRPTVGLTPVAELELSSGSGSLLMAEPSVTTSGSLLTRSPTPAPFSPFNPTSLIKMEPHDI
# UniProt Q01892: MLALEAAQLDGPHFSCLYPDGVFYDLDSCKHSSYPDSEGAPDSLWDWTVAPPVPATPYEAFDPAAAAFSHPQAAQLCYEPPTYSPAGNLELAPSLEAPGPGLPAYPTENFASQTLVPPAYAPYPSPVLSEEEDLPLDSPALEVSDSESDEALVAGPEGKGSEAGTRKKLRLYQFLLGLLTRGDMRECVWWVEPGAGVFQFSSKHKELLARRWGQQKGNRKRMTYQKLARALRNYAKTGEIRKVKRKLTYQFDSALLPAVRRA
# The entries are a selection whose mix differs from that of the whole data set. At the low end of the ranking the order means little.
# Columns and labels:
# Experiment in all cases: DAPPL (digital affinity profiling via proximity ligation, sequencing)
# Settings in all cases: 10 mM Tris-HCl pH 7.5, 50 mM NaCl, 1 mM DTT, 4% glycerol, room temperature, 30 min; GST-TFs on glutathione beads, 16-mer random dsDNA library, 0.1% …; high values mean tight binding; double strand, one strand shown; scale: fold enrichment (6-mer frequency, TF over GST control)
# ETV5 = ETV5 (UniProt P41161)
# ELF4 = ELF4 (UniProt Q99607)
# ETV2 = molecular target: T1, ETV2 (UniProt O00321)
# T1 sequence: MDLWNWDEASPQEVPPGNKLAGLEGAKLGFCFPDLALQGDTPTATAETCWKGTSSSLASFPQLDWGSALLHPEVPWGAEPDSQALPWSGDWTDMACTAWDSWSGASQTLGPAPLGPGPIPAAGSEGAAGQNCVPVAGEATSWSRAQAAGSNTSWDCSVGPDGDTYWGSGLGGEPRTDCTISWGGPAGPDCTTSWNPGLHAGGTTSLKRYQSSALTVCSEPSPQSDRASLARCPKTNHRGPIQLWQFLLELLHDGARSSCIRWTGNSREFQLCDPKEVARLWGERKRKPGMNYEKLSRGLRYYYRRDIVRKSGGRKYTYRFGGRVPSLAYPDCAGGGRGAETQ
# ETV3L = molecular target: T2, ETV3L (UniProt Q6ZN32)
# T2 sequence: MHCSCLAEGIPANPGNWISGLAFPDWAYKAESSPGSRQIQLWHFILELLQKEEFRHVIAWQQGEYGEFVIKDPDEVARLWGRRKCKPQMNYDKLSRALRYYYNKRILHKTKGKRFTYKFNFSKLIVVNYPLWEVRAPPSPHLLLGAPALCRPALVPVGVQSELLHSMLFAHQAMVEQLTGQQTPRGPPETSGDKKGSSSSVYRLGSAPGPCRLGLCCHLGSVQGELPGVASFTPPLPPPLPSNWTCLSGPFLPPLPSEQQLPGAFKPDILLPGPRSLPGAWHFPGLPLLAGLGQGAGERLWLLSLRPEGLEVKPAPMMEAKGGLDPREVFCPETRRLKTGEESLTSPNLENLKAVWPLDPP
# EHF = molecular target: T3, EHF (UniProt Q9NZC4)
# T3 sequence: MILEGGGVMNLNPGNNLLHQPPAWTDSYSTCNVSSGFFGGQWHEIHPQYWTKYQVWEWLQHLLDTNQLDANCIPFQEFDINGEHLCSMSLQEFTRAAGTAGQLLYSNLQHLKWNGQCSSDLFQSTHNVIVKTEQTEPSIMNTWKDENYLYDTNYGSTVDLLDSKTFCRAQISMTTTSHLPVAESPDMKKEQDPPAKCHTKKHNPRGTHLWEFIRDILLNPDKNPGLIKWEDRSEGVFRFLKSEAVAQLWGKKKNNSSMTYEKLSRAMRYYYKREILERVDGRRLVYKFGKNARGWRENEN
# SPIB = SPIB (UniProt Q01892)
Sequence,binding signal (ETV5),binding signal (ELF4),binding signal (ETV2),binding signal (ETV3L),binding signal (EHF),binding signal (SPIB)
ATGTAG,1.08,1.1,1.03,0.979,,
GAACTT,1.66,1.52,,,,
AAGAAC,1.16,1.2,,,,
ACAACT,1.32,1.36,1.29,1.36,,
GATCCA,0.992,1.05,1,1.06,,
CTAGGC,1.06,1.16,1.21,,,
TGAATC,0.998,0.965,0.899,0.915,,
CCGAGC,1.14,1.09,,,,
TGTTGC,1.35,1.34,,,,
TGATAG,0.992,1.03,,,,
CCCGCG,0.937,0.964,0.834,0.956,0.897,
TTTAAG,1.34,1.29,,,,
AATCTT,1.35,1.31,,,,
GCAGCC,0.941,0.929,0.935,0.982,,
ACGTCA,0.948,0.947,0.897,0.893,,
ATCAAC,1.04,1.09,1.18,1.23,,
CCCCCT,1.29,1.35,1.17,,,
TTCTAG,1.11,1.22,1.18,1.3,,
CAGCGC,0.997,0.942,1.07,,,
GATTAA,0.993,0.984,1.11,,,
AGGCCC,0.95,0.983,0.875,0.865,0.863,0.919
AGTGGT,1.14,0.993,0.848,1.06,,
TTCGTC,1.33,1.29,,,,
AAGATT,1.25,1.22,1.16,,,

# Two entries drawn at random from the list so far:
Sequence,binding signal (ETV5),binding signal (ELF4),binding signal (ETV2),binding signal (ETV3L),binding signal (EHF),binding signal (SPIB)
CCCGCG,0.937,0.964,0.834,0.956,0.897,
ATGTAG,1.08,1.1,1.03,0.979,,

# (next part)

Sequence,binding signal (ETV5),binding signal (ELF4),binding signal (ETV2),binding signal (ETV3L),binding signal (EHF),binding signal (SPIB)
CTCGGG,0.967,0.995,0.967,1.09,0.986,
TGCGCA,1.12,1.09,0.988,1.11,1.16,
TACGCA,1.21,1.23,1.15,1.12,,
TTGGAT,0.955,0.995,0.98,0.976,0.934,
AATTTT,1.29,1.32,1.46,,,
TGGAAT,1.22,1.14,,,,
TGTGAT,0.938,1.05,0.953,,,
TCCCGA,1.37,1.25,0.993,,,
TTGGAA,0.97,0.943,1.02,0.922,1.04,1
CTGCGC,1.34,1.32,1.46,,,
ACGGCA,1.13,1.06,0.954,,,
GCTCCG,1.33,1.39,,,,
CCCGGT,1.09,0.963,0.989,,,
AGGACC,1.04,1.06,,,,
TGGTAA,1.23,1.23,1.3,,,
AGGTTT,1.05,1.07,1.05,0.998,,1.04
ACAAAG,0.987,0.966,0.985,0.875,0.987,0.928
ATGGCG,1.02,0.959,0.968,,0.97,
CCAAGT,0.963,0.918,0.962,0.937,0.847,0.894
TGGGTA,1.02,0.928,1.14,0.959,,0.966
GGCTTA,1.03,0.975,0.91,0.931,,0.985
GCCTGT,0.9,0.945,0.908,0.88,0.91,0.886
TCATCG,1,0.994,0.969,,1.05,
CGTTGG,0.918,0.953,0.805,0.982,0.869,0.975

Sequence,binding signal (ETV5),binding signal (ELF4),binding signal (ETV2),binding signal (ETV3L),binding signal (EHF),binding signal (SPIB)
TAAAGG,0.976,0.998,0.965,,1.12,
CAAAGT,0.968,1.03,0.997,0.948,0.886,1.04
GATCAA,0.979,0.991,1.19,,0.987,
TGGATT,1.06,0.996,0.918,,0.969,
TGCTCC,1.42,1.41,1.48,1.45,,1.41
TAAGTC,0.938,0.858,0.909,0.883,0.835,0.891
GTTGAT,1.14,1.15,0.958,,1.04,
TGTTGG,0.931,0.897,0.933,0.891,0.962,0.755
ACTTGG,1.21,1.31,1.15,1.15,,1.25
TAGGTA,0.995,0.999,0.956,1.01,0.974,0.99
ATTCGG,0.896,0.946,0.945,0.989,0.869,0.928
CGCTCG,1.05,1.17,0.972,0.94,,1.12
AGTGTA,1.05,0.982,0.915,0.96,1.02,0.999
TAGATT,1.12,1.19,1.13,,1.24,
ACCTAG,0.986,1.06,0.946,1.05,,0.975
GTTTGT,0.884,0.969,0.979,1.06,,0.95
CCGGTG,0.983,0.96,0.886,,0.986,0.955
CACCTA,0.928,1.1,0.954,0.941,,0.997
TGAAGA,0.887,1.01,0.904,0.924,0.937,0.842
TGCACA,1.13,1.12,1.15,1.13,,1.13
TCGCGT,0.919,0.947,0.991,0.967,,1.01
GTGGCA,0.996,0.916,1.07,0.964,1.03,0.992
GACGTT,0.856,0.944,0.983,0.94,0.978,0.904
CGGGCT,0.888,0.985,0.942,,0.938,

Sequence,binding signal (ETV5),binding signal (ELF4),binding signal (ETV2),binding signal (ETV3L),binding signal (EHF),binding signal (SPIB)
GTCCAA,0.912,0.94,0.957,0.944,0.962,0.86
AGTCTC,0.944,0.989,0.913,,0.986,0.988
AGCTGA,0.975,1.01,1.08,0.972,,0.994
CATTGG,0.932,0.866,0.813,0.978,1,0.891
TAAGCA,0.895,1.03,0.988,0.947,0.967,0.98
GTGTAC,0.949,0.946,0.809,0.806,0.967,0.839
GTGACT,0.922,0.941,0.762,,0.903,0.922
TAGATA,0.992,1.07,,1.12,1.06,
GCCGTC,0.954,0.951,,0.973,1.1,0.959
TCTAGA,0.938,0.994,0.949,,,0.939
GACCGC,0.869,0.991,,0.915,0.926,0.923
ACTTAG,1.16,1.03,,0.995,,1.11
TAGACT,0.969,0.981,0.981,,,0.99
TCTGGA,0.993,0.962,,1.1,0.938,
AGTTGC,0.987,0.958,0.853,,0.986,0.925
CCAACG,1.06,1.21,,1.1,,
CTTTAT,1.21,1.19,,1.22,,1.19
GACACT,0.972,0.99,,1.08,0.99,0.953
ACGTAT,1.2,1.27,,,1.29,
CTACCG,1.64,1.59,1.47,,,1.73
TAAGCG,1.02,0.923,,1.03,,0.956
TGCGGT,0.955,0.981,,0.992,,
CAACTG,1.11,1.07,,1.17,,
CCGGCT,1.89,1.68,,1.69,,

Sequence,binding signal (ETV5),binding signal (ELF4),binding signal (ETV2),binding signal (ETV3L),binding signal (EHF),binding signal (SPIB)
TCGTTA,0.979,0.933,1.08,,0.926,0.908
GCAATT,1.12,1.12,1.01,,,1.21
TATAGA,1.08,1.09,,1.18,1.07,
ATGCGT,0.991,0.979,,1.1,0.961,1.03
CTGGTG,0.875,0.928,0.994,,,0.956
CTGAAA,1.22,1.13,,1.1,,
CATTGA,0.925,0.864,0.968,,0.933,0.874
CTATTA,1.14,1.14,,,1.12,
GGTCTG,0.971,0.993,,0.926,0.998,
TTGCTG,1.09,1.35,,,1.25,
ACGCGG,1.02,1,,0.968,,
GTATGT,0.956,0.97,,0.973,0.965,0.905
CGTTGT,1.01,0.962,1.13,,0.99,0.86
GGATGG,0.939,0.923,0.99,,0.952,1.03
GTCGAC,0.957,0.994,,0.948,,0.985
CGTTTG,1.01,0.944,,,0.943,
CGCACA,0.949,0.955,0.987,,1.03,0.948
CAAGCT,0.954,1.02,,,0.962,
CCTGGC,0.933,0.901,,,1.04,
GCTAGG,0.969,1.06,0.93,,,0.985
AACCGG,1.53,1.31,,1.43,,
AAATCT,1.31,1.34,1.24,,,1.29
TATTTG,1.47,1.3,,1.47,,
GCCCCC,1.06,1.11,,,,0.974
